From article PMC7486383, “Protrudin and PDZD8 contribute to neuronal integrity by promoting lipid extraction required for endosome maturation” (Nature Communications, 2020) come the findings set out here.

The target of the test is T1, endogenous protrudin of mouse brain (mouse (endogenous in mouse brain)) (UniProt Q3TXX3).
T1 sequence: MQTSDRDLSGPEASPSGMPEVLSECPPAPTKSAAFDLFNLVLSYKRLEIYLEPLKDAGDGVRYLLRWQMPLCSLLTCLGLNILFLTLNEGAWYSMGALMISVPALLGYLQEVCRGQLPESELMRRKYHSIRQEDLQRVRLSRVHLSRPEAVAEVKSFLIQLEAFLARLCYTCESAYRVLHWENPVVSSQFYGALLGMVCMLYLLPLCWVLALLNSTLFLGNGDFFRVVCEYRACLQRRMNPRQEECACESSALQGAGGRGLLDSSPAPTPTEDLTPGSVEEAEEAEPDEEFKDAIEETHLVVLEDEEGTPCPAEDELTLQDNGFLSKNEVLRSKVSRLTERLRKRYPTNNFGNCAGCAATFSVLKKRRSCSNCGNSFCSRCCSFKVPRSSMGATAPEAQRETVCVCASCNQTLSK
The test is described as follows: co-IP; membrane fraction of wild-type mouse brain; IP with antibodies to protrudin or to PDZD8 or normal rabbit serum, protein G-Sepharose, 1 h at 4 °C; immunoblot for protrudin and PDZD8.

These are yes or no findings as the source states them, for the method shown. In cells and extracts the contact can be indirect. Some entries that bind do so weakly or less than the wild type.

B1: endogenous PDZD8 of mouse brain (protein, UniProt B9EJ80 1-1147)
chain: MGLLLLILASAVLGSFLTLLAQFLLLYRRQPEPRADEAARAGDGFRYLKPVPGLPLREYLYGGGAEELAACSSEAGASSTPTPDSPAPPTLETCYFLNATILFLFRELRDTALARRWVTKKIKVEFEELLQTKTAGRLLEGLSLRDVFLGDTVPFIKTIRLVRPVVASGTGEPDDPDGDALPATCPEELAFEAEVEYNGGFHLAIDVDLVFGKSAYLFVKLSRVVGRLRFVLTRVPFTHWFFSFVEDPLIDFEVRSQFEGRPMPQLTSIIVNQLKKIIKRKHTLPSYKIRFKPFFPYQALQGFEEDEELIHIQQWALTEGRLKVTLLECSRLFIFGSYDRETNVHCTLELSSGVWEEKQRSSIKTVELIKGNLQSVGLTLRLVQSTDGYAGHVIIETVAPNSPAAMADLQRGDRLIAIGGVKITSTLQVLKLIKQAGDRVLVYYQRPAGQSSQDSLGQLEESFLSSSCQAAYEEDAAGLSADTENRDLDSEFEDLASDVRVQTELKEETQPLSHSPKRTPTTLSIKPLGAISPVLNRKLISGIHPPPQKLPSKEGNKPSTLKTSETTEAAQVSKPQGPTFKPPVPPRPQGRVPLPPTDTSAQADPEAPEKPDKVLLPPPPADKPAEKQVKSVDQGEDVAAGKQSSAKQEGVKDLPSESSAPTKDSSDDPQMWESSEVLYRNKVGKWSRTRASCVFDIEACHRYLNIALWCRDPFKLGGLICLGHVSLKLEEVALGCLATSNMEYLTKFRLEPPTPKAMVTRTALRNLSMQKGFNDKFCFGDITIHFKYLKEGEPDHHIVPNVEKEKELHLVEEVSTLPKEEHFVGQMSLSENKHSFQDTQFQNPTWCDYCKKKVWTKAASQCMFCAYVCHKKCQEKCLAETPLCGATERRIDRTLKNLRLEGQDPLLGLPPRVEIEANKSVNKTTGLTRHIINTSSRLLNLRQVSKTRLSEPGTDLVEPSPKHTPNTSDNEGSDTEVCGSNSPSKRGNSAGIKLMRKEGGLDDSVFIAVKEIGRDLYRGLPTEERIQKLEFMLDKLQNEIDQELEHNNSLVREEKETNDTRKKSVLSAALAKSGERLQALTLLMIHYRAGIEDIETLENLSLDQHSKKMNKYADDTEEDLDSEISQLIDSQPFSNISDDLFGPSESV
For the molecule B1, the binding entry was “binds”.
